What all share (assay type): cell-based
Assay [1] relates to T-47D breast cancer cells. Nature of the assay: Cell viability assay (MTT), T-47D. The note with it: Homo sapiens, T47D, 72 hrs treatment, 1 to 10 μM tested, ± SD, read-out: Observed IC50 for T-47D breast cancer cells. How it is done: Experiments were performed using different cancer cell-lines, which were supplied by the American Type Culture Collection (ATCC), Rockville, Md., USA, and maintained in the recommended culturing media. The detailed steps and condition for cell culture are described as the following: T-47D, human breast ductal carcinoma: […] Tamoxifen is obtained from Sigma-Aldrich. All test samples were dissolved in absolute ethanol and serial diluted to the testing concentrations. For blank sample, absoluted ethanol was used. The final organic solvent content for all cell assays were less than or equal to 0.1%. The cell viability assay was conducted by using the method described by J. Carmichael, et al in Cancer Research 47:936 (1987). All the cells were seeded into 96-well microtitre plates and incubated at 37° C. under 5% CO2 atmosphere. For MCF7, T-47D and WS1, 3000 cells/100 μl/well were used and for HeLa, 1000 cells/100 μl/well were used. […] After additional 72 hours of incubation at 37° C. under 5% CO2 atmosphere, the cell were then collected and evaluated using MTT assay to assess the cell viability by using the method mentioned above. […] Cultures containing 3000 cells per well were treated with 0, 1, 2.5, 5 and 10 μM (final concentration) of the test samples and the viable cells were counted after 72 hrs. […]

The test system of assay [2] is HeLa cervical cancer cells. Nature of the assay: Cell viability assay (MTT), HeLa. The note with it: Homo sapiens, 72 hrs treatment, 1 to 10 μM tested, ± SD, read-out: Observed IC50 for HeLa cervial cancer cells. The method, then: Experiments were performed using different cancer cell-lines, which were supplied by the American Type Culture Collection (ATCC), Rockville, Md., USA, and maintained in the recommended culturing media. The detailed steps and condition for cell culture are described as the following: HeLa, humen cervical adenocarcinoma: Minimum essential medium (Eagle) with 2 mM L-glutamine and Earle's BSS adjusted to contain 1.5 g/L sodium bicarbonate, 0.1 mM non-essential amino acids and 1.0 mM sodium pyruvate and supplemented with 0.01 mg/ml insulin, 90%; fetal bovine serum, 10%. Tamoxifen is obtained from Sigma-Aldrich. All test samples were dissolved in absolute ethanol and serial diluted to the testing concentrations. For blank sample, absoluted ethanol was used. The final organic solvent content for all cell assays were less than or equal to 0.1%. The cell viability assay was conducted by using the method described by J. Carmichael, et al in Cancer Research 47:936 (1987). All the cells were seeded into 96-well microtitre plates and incubated at 37° C. under 5% CO2 atmosphere. For MCF7, T-47D and WS1, 3000 cells/100 μl/well were used and for HeLa, 1000 cells/100 μl/well were used. […] After additional 72 hours of incubation at 37° C. under 5% CO2 atmosphere, the cell were then collected and evaluated using MTT assay to assess the cell viability by using the method mentioned above. […]

In another assay the test system is MCF7 breast cancer cells. The assay can be described thus: Cell viability assay (MTT), MCF7. The note with it: Homo sapiens, 72 hrs treatment, 1 to 10 μM tested, ± SD, read-out: Observed IC50 for MCF7 breast cancer cells. The method, then:
Experiments were performed using different cancer cell-lines, which were supplied by the American Type Culture Collection (ATCC), Rockville, Md., USA, and maintained in the recommended culturing media. The detailed steps and condition for cell culture are described as the following: MCF7, human breast adenocarcinoma: Minimum essential medium (Eagle) with 2 mM L-glutamine and Earle's BSS adjusted to contain 1.5 g/L sodium bicarbonate, 0.1 mM non-essential amino acids and 1.0 mM sodium pyruvate and supplemented with 0.01 mg/ml insulin, 90%; fetal bovine serum, 10%. Tamoxifen is obtained from Sigma-Aldrich. All test samples were dissolved in absolute ethanol and serial diluted to the testing concentrations. For blank sample, absoluted ethanol was used. The final organic solvent content for all cell assays were less than or equal to 0.1%. The cell viability assay was conducted by using the method described by J. Carmichael, et al in Cancer Research 47:936 (1987). […] After additional 72 hours of incubation at 37° C. under 5% CO2 atmosphere, the cell were then collected and evaluated using MTT assay to assess the cell viability by using the method mentioned above. […] Cultures containing 3000 cells per well were treated with 0, 1, 2.5, 5 and 10 μM (final concentration) of the test samples and the viable cells were counted after 72 hrs. […]

Structures are written as SMILES.

A word on the IC50: it is the concentration that gives 50% inhibition. Take `CC/C(=C(\c1ccccc1)c1ccc(OCCN(C)C)cc1)c1ccccc1` [tamoxifen (TMA), tamoxifen, reference compound]: the IC50 in assay [1] was 5.5 ± 0.21 µM; in assay [2], 6.1 ± 0.53 µM; with MCF7 breast cancer cells, 6.35 ± 0.45 µM.
